Measured values from article PMC4022514, “The C-Terminal Domain from S. cerevisiae Pat1 Displays Two Conserved Regions Involved in Decapping Factor Recruitment” (PLoS ONE, 2014).
Results are given in words; binding and its absence hold for the method and conditions named. For some of these results: Binding can be weak; no strength is given. Sequences can lack the tags named with a protein.

Chains of the proteins cited; added tags and fusions are not shown. Lines headed by an entry give the natural chain unless they say otherwise; changes in a name come on top.
UniProt P25644: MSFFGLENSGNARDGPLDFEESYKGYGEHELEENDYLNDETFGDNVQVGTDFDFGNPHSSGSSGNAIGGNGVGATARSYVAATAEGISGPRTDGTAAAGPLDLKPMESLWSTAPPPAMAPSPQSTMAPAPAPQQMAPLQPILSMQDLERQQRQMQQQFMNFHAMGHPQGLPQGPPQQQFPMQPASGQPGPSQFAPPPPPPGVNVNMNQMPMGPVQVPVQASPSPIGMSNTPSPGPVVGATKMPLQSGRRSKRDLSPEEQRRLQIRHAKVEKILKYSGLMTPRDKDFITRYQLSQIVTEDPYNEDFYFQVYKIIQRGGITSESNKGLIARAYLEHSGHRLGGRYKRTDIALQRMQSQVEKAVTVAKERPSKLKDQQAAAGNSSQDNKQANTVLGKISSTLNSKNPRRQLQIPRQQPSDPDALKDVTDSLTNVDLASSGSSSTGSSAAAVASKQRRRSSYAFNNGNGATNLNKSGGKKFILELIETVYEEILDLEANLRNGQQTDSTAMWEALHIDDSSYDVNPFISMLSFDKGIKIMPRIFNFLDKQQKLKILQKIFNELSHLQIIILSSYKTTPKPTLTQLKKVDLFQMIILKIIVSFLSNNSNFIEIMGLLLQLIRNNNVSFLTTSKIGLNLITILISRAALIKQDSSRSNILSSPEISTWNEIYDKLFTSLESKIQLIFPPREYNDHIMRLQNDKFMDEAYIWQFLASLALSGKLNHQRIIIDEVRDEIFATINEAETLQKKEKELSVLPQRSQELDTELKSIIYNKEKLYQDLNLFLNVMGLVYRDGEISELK

What was measured:
[1] = target: T1, Scd6 (two-hybrid fusion) (S. cerevisiae) (UniProt P45978); assay: two-hybrid; yeast strain BSY2475, isogenic to MAV203 but lacking Edc3 (Δedc3); β-galactosidase activity by Beta-Glo; Pat1 fused to Gal4AD
T1 sequence: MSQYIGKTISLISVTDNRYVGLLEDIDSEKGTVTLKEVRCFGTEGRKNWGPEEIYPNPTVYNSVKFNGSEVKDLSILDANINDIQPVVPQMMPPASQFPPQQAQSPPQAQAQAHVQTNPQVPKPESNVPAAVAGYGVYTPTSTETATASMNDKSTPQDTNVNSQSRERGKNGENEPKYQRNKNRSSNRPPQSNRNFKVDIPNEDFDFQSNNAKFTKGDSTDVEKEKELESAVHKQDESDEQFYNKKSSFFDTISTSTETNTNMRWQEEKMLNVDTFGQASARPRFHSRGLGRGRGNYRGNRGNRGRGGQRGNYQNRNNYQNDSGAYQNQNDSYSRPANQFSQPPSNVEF

[2] = target: T2, Edc3 (two-hybrid fusion to the DNA binding domain) (S. cerevisiae) (UniProt P39998); assay: as above
T2 sequence: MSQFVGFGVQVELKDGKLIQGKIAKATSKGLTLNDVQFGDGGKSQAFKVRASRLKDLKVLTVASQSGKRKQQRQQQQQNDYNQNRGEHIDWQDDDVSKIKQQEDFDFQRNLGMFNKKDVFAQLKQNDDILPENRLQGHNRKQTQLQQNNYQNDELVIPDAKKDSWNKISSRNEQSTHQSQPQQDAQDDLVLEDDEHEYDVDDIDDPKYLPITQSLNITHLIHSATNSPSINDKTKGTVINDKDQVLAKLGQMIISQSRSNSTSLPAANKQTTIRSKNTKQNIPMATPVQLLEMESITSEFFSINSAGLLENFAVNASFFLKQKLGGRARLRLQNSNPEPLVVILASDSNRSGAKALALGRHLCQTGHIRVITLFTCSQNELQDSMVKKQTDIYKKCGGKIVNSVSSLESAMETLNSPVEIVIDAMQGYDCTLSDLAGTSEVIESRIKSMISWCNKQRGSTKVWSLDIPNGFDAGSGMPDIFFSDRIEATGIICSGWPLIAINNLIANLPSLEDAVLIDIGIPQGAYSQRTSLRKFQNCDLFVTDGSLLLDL

[3] = target: T1, Scd6 (two-hybrid fusion) (S. cerevisiae); assay: two-hybrid; yeast strain MAV203 (wild type for EDC3); β-galactosidase activity by Beta-Glo; Pat1 fused to Gal4AD
[4] = target: T2, Edc3 (two-hybrid fusion to the DNA binding domain) (S. cerevisiae); assay: as above

binding [1]: binds | binding [2]: no binding | binding [3]: binds | binding [4]: no binding
Substance: ScPat1ΔC68 (ScPat1 lacking residues 730 to 796; two-hybrid fusion to Gal4AD) (from UniProt P25644) (domain or fragment)
